Structures can show the parent of a compound that is named as a salt. Single values are uncertain, as repeats are few or missing.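 All cells are established human bladder cancer lines, one of them grown from a patient-derived xenograft. Viability was read by a luminescent ATP assay as percent inhibition versus vehicle over a seven-point dilution series; the paper calls scores above 59 very active, 30–59 active, 21–29 semi-active, 9–20 low active and below 9 inactive.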
Columns and labels:
Experiment in all cases: drug sensitivity score DSS3 (score 0-100); higher = more sensitive; extreme values may be limits of the assay
Conditions in all cases: culture: 3D, ultra-low attachment; treatment time: 5 days
[1] = tested on: SCaBER
[2] = tested on: SW780
[3] = tested on: TCCSUP
[4] = tested on: UM-UC-12
[5] = tested on: UM-UC-6
[6] = tested on: UM-UC-3
[7] = tested on: UM-UC-18
[8] = tested on: UM-UC-5
[9] = tested on: 5637
[10] = tested on: J82
[11] = tested on: UM-UC-9
[12] = tested on: T-24
[13] = tested on: UM-UC-1
[14] = tested on: UM-UC-15
[15] = tested on: UM-UC-14
[16] = tested on: BC8149
[17] = tested on: UM-UC-17

Structure (SMILES)	drug sensitivity score DSS3 [1]	drug sensitivity score DSS3 [2]	drug sensitivity score DSS3 [3]	drug sensitivity score DSS3 [4]	drug sensitivity score DSS3 [5]	drug sensitivity score DSS3 [6]	drug sensitivity score DSS3 [7]	drug sensitivity score DSS3 [8]	drug sensitivity score DSS3 [9]	drug sensitivity score DSS3 [10]	drug sensitivity score DSS3 [11]	drug sensitivity score DSS3 [12]	drug sensitivity score DSS3 [13]	drug sensitivity score DSS3 [14]	drug sensitivity score DSS3 [15]	drug sensitivity score DSS3 [16]	drug sensitivity score DSS3 [17]
O=P1(N(CCCl)CCCl)NCCCO1 (stereo not drawn) [Cyclophosphamide, Cyclophosphamide Monohydrate] (max dose 10000 nM)	0	0	0	0	0	0	0	0	0	0	0	0	0	0.595	0	0	0
COc1cc(Nc2ncc(F)c(Nc3ccc4c(n3)NC(=O)C(C)(C)O4)n2)cc(OC)c1OC [R406 (free base)] (max dose 10000 nM)	0	0	0.0461	0	0	0	0	0	0	0	0	0.492	0	0	0.0242	0	0
Cc1nc(N)sc1-c1ccnc(Nc2ccc(N3CCOCC3)cc2)n1 [CYC116] (max dose 10000 nM)	1.74	0	12.6	1.14	0	1.41	0.729	0	4.26	1.27	0	1.3	1.42	0	4.51	7.78	0
COc1cc2nc(N3CCCN(C)CC3)nc(NC3CCN(Cc4ccccc4)CC3)c2cc1OC (max dose 10000 nM)	0.121	0.24	0.122	0.137	0	0	0.118	0	0.122	0	0	0	0	0.124	0	1.37	0
Nc1ccc2ncnc(NCCc3ccc(Oc4ccccc4)cc3)c2c1 [QNZ (EVP4593)] (max dose 10000 nM)	2.35	2.09	5.57	2.68	2.54	0	0	6.74	6.6	0	14.2	0	22.8	0.245	12.8	0	20.1
CNC(=O)c1ccc(-c2cnc3ncc(Cc4ccc5ncccc5c4)n3n2)cc1F (max dose 10000 nM)	2.1	8.42	10.3	0	11.9	5.06	3.71	0	12.6	0	2.57	0	5.57	8.7	4.49	0	10.8
COc1ccc(-c2oc3c(CC=C(C)C)c(O)cc(O)c3c(=O)c2O[C@@H]2O[C@@H](C)[C@H](O)[C@@H](O)[C@H]2O)cc1 [Baohuoside I] (max dose 10000 nM)	0	0	0	0	0	0	0	0	0	0	0.596	0.474	0	1.81	0	0	0
CNC(=O)c1cc(Oc2ccc(NC(=O)Nc3cc(C(C)(C)C)nn3-c3ccc4ncccc4c3)c(F)c2)ccn1 [DCC-2036 (Rebastinib)] (max dose 10000 nM)	30.1	6.39	42.8	22.3	12.3	29.7	22.8	10.6	13.9	9.34	0	11.3	21.6	0	17.7	42.1	8.72
CC(C)S(=O)(=O)c1ccc2nccc(Nc3ccc4scnc4c3)c2c1 (max dose 10000 nM)	0	0	0	0	0	0.249	1.12	0	0.0359	0	0	0	0	1.69	0	0	0
C=CC(=O)N[C@H]1CCOC[C@H]1Nc1ncc2cc(-c3c(Cl)c(OC)cc(OC)c3Cl)ccc2n1 [BLU-554 (BLU554)] (max dose 10000 nM)	0	0	0	0	0	0	0	0	0	0	0	0	0	0	0	0	0
COc1ccc(S(=O)(=O)Nc2cccnc2Nc2ccc(O)cc2)cc1 [ABT-751 (E7010)] (max dose 10000 nM)	2.71	1.9	26.6	1.15	6.54	1.36	6.5	0	15.1	0.801	0	0.786	7.85	0	10.5	7.78	11.9
Cc1cn(CCN2CCN(c3ccccc3-c3cc(C#N)cc(C(=O)NCCCN4CCCC4)c3)CC2)c2ccccc12 [LLY-507] (max dose 10000 nM)	0.311	0	0.105	0	0.139	0.621	0.0889	0.135	0.183	0	0.0962	0	0.119	4.95	0	3.18	0
COc1c(OCCCN2CCOCC2)ccc2c1N=C(NC(=O)c1cnc(N)nc1)N1CCN=C21 [Copanlisib] (max dose 2000 nM)	0	0	0.0364	32.3	14.7	8.27	3.23	40.4	0	0.206	0	5.58	19.6	0	21	0	0
CC(C)(C)c1cc(/C=C(\C#N)C(N)=S)cc(C(C)(C)C)c1O [Tyrphostin AG 879] (max dose 10000 nM)	0	0	0	0	0	0	0	0	0	0	0	0	0	0	0	0	0
Cn1nccc1Nc1nccc(-c2cc3c(s2)C(C)(C)N(CCN2CCOCC2)C3=O)n1 (max dose 10000 nM)	5.78	0	0	0	0	2.7	0	21	0	0	0	0.193	0	0	0	0	0
CCCC(CCC)C(=O)O [Valproic acid sodium salt (Sodium valproate)] (max dose 10000 nM)	10.3	0	14.1	3.91	0	0.226	4.18	0	15.1	1.19	0	3.48	2.26	2.2	3.15	14.4	1.03
O=c1[nH]cnc2ccccc12 [4-Hydroxyquinazoline] (max dose 10000 nM)	0	0	0	0	0	0	0	0	0	0	0	0	0	0.279	0	0	0
COc1ncc(-c2ccc3nccc(-c4ccnnc4)c3c2)cc1NS(=O)(=O)c1ccc(F)cc1F (max dose 10000 nM)	63.1	13.9	59.4	49.7	36.2	47.5	44.6	56.7	47.3	37.4	5.98	36.7	45.8	0	47	61	14.2
CCOc1ccn(-c2ccc(F)cc2)c(=O)c1C(=O)Nc1ccc(Oc2ccnc(N)c2Cl)c(F)c1 (max dose 10000 nM)	0	0	11.3	0	0.602	8.35	0	0.502	8.31	0.014	0	0	0	0	0	7.96	2.46
C=CC(=O)Nc1cccc(Oc2nc(Nc3ccc(N4CCN(C)CC4)cc3OC)ncc2Cl)c1 [WZ4002] (max dose 10000 nM)	0.278	0	1.98	1.35	0	0.75	1.16	0	1.75	0	0	0.228	0.413	0	0	9.21	0
CC(C)(C#N)c1cc(Cn2cncn2)cc(C(C)(C)C#N)c1 [Anastrozole] (max dose 10000 nM)	0	0	1.29	0.00311	0	0	0	0	0	0	0	0	0.196	0	0	0.00587	0
O=C(O)c1nn(Cc2ccc(Cl)cc2Cl)c2ccccc12 [Lonidamine] (max dose 10000 nM)	11.7	0	7.09	0	0	4.52	0.115	8.47	15.4	0	0.846	0	6.25	0.00122	0	5.92	0.425
Cc1cc(C)nc(SCC(=O)Nc2ncc(Cc3cccc4ccccc34)s2)n1 [SirReal2] (max dose 10000 nM)	0	0	0	0	0	0	0	0	0	0	0	0.0105	0	0	0	0	0
COc1cc(OC2CCN(C)CC2)ccc1Nc1ncc2c(n1)n(C1CCCC1)c(=O)n2C [AZ 3146] (max dose 10000 nM)	0	0	0.4	0	0.306	0.0673	0	0	0	0	0	0	0.0118	0	0	0	0

Quoted at random: two compounds from above.
Structure (SMILES)	drug sensitivity score DSS3 [1]	drug sensitivity score DSS3 [2]	drug sensitivity score DSS3 [3]	drug sensitivity score DSS3 [4]	drug sensitivity score DSS3 [5]	drug sensitivity score DSS3 [6]	drug sensitivity score DSS3 [7]	drug sensitivity score DSS3 [8]	drug sensitivity score DSS3 [9]	drug sensitivity score DSS3 [10]	drug sensitivity score DSS3 [11]	drug sensitivity score DSS3 [12]	drug sensitivity score DSS3 [13]	drug sensitivity score DSS3 [14]	drug sensitivity score DSS3 [15]	drug sensitivity score DSS3 [16]	drug sensitivity score DSS3 [17]
COc1cc2nc(N3CCCN(C)CC3)nc(NC3CCN(Cc4ccccc4)CC3)c2cc1OC (max dose 10000 nM)	0.121	0.24	0.122	0.137	0	0	0.118	0	0.122	0	0	0	0	0.124	0	1.37	0
Cn1nccc1Nc1nccc(-c2cc3c(s2)C(C)(C)N(CCN2CCOCC2)C3=O)n1 (max dose 10000 nM)	5.78	0	0	0	0	2.7	0	21	0	0	0	0.193	0	0	0	0	0

— the supplement of paper PMC7646827
